# Experimental data taken from the supplement of paper PMC8728848.
# The other results are listed elsewhere or left out.
# What was measured:
# Experiment in all cases: glycan array binding signal (z-score within array); higher = stronger binding
# Conditions in all cases: glycan notation: IUPAC condensed, linker removed
# Gal6S(b1-4)GlcNAc6S = target: Gal6S(b1-4)GlcNAc6S
# Summary of the method: (§1)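 Columns mapping to the same glycan were averaged after glycan names were converted to IUPAC-condensed notation. The data come from 3228 arrays in the Consortium for Functional Glycomics database, limited to those with an available protein sequence. Binding is reported as a within-array Z-score averaged across arrays of one protein sequence and across linkers.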
# GalNAc(a1-3)Gal = target: GalNAc(a1-3)Gal
# Summary of the method: as §1
# GalNAc(a1-3)GalNAc = target: GalNAc(a1-3)GalNAc
# Summary of the method: as §1
# [1] = target: GalNAc(a1-3)GalNAc(a1-3)Gal(a1-4)Gal(b1-4)GlcNAc
# Summary of the method: as §1
# GalNAc(b1-3)Gal = target: GalNAc(b1-3)Gal
# Summary of the method: as §1
# [2] = target: GalNAc(b1-3)Gal(a1-4)Gal(b1-4)GlcNAc
# Summary of the method: as §1
# [3] = target: GalNAc(b1-3)Gal(a1-4)Gal(b1-4)GlcNAc(b1-3)Gal(b1-4)Glc
# Summary of the method: as §1
# [4] = target: GalNAc(b1-3)Gal(a1-6)Gal(b1-4)Glc
# Summary of the method: as §1
# GalNAc(b1-3)GalNAc = target: GalNAc(b1-3)GalNAc
# Summary of the method: as §1
# GalNAc(b1-4)GlcNAc = target: GalNAc(b1-4)GlcNAc
# Summary of the method: as §1
# [5] = target: GalNAc(b1-4)GlcNAc(b1-2)Man(a1-3)[GalNAc(b1-4)GlcNAc(b1-2)Man(a1-6)]Man(b1-4)GlcNAc(b1-4)GlcNAc
# Summary of the method: as §1
# Glc(a1-4)Glc = target: Glc(a1-4)Glc
# Summary of the method: as §1
# Glc(a1-6)Glc(a1-6)Glc = target: Glc(a1-6)Glc(a1-6)Glc
# Summary of the method: as §1
# Glc(b1-4)Glc = target: Glc(b1-4)Glc
# Summary of the method: as §1
# Glc(b1-6)Glc = target: Glc(b1-6)Glc
# Summary of the method: as §1
# GlcA(b1-3)Gal = target: GlcA(b1-3)Gal
# Summary of the method: as §1
# GlcA(b1-3)GlcNAc = target: GlcA(b1-3)GlcNAc
# Summary of the method: as §1
# GlcA(b1-6)Gal = target: GlcA(b1-6)Gal
# Summary of the method: as §1
# [6] = target: GlcNAc(a1-3)Gal(b1-4)GlcNAc
# Summary of the method: as §1
# [7] = target: GlcNAc(a1-4)Gal(b1-3)GlcNAc
# Summary of the method: as §1
# [8] = target: GlcNAc(a1-4)Gal(b1-4)GalNAc
# Summary of the method: as §1
# [9] = target: GlcNAc(a1-4)Gal(b1-4)GlcNAc
# Summary of the method: as §1
# [10] = target: GlcNAc(a1-4)Gal(b1-4)GlcNAc(b1-3)Gal(b1-4)Glc
# Summary of the method: as §1
# [11] = target: GlcNAc(a1-4)Gal(b1-4)GlcNAc(b1-3)Gal(b1-4)GlcNAc
# Summary of the method: as §1
# [12] = target: GlcNAc(a1-4)Gal(b1-4)GlcNAc(b1-3)Gal(b1-4)GlcNAc(b1-3)Gal(b1-4)GlcNAc
# Summary of the method: as §1
# [13] = target: GlcNAc(a1-4)Gal(b1-4)GlcNAc(b1-3)Gal(b1-4)[Fuc(a1-3)]GlcNAc(b1-3)Gal(b1-4)[Fuc(a1-3)]GlcNAc
# Summary of the method: as §1
# [14] = target: GlcNAc(a1-6)Gal(b1-4)GlcNAc
# Summary of the method: as §1
# [15] = target: GlcNAc(b1-2)Gal(b1-3)GalNAc
# Summary of the method: as §1
# [16] = target: GlcNAc(b1-2)Man(a1-3)[GlcNAc(b1-2)Man(a1-6)]Man(b1-4)GlcNAc(b1-4)GlcNAc
# Summary of the method: as §1
# [17] = target: GlcNAc(b1-2)Man(a1-3)[GlcNAc(b1-2)Man(a1-6)]Man(b1-4)GlcNAc(b1-4)[Fuc(a1-6)]GlcNAc
# Summary of the method: as §1
# [18] = target: GlcNAc(b1-2)[GlcNAc(b1-4)]Man(a1-3)[GlcNAc(b1-2)Man(a1-6)]Man(b1-4)GlcNAc(b1-4)GlcNAc
# Summary of the method: as §1
# GlcNAc(b1-3)Gal = target: GlcNAc(b1-3)Gal
# Summary of the method: as §1
# [19] = target: GlcNAc(b1-3)Gal(b1-3)GalNAc
# Summary of the method: as §1
# GlcNAc(b1-3)Gal(b1-4)Glc = target: GlcNAc(b1-3)Gal(b1-4)Glc
# Summary of the method: as §1
# [20] = target: GlcNAc(b1-3)Gal(b1-4)GlcNAc
# Summary of the method: as §1
# [21] = target: GlcNAc(b1-3)Gal(b1-4)GlcNAc(b1-3)Gal(b1-4)GlcNAc
# Summary of the method: as §1
# GlcNAc(b1-3)GalNAc = target: GlcNAc(b1-3)GalNAc
# Summary of the method: as §1
# GlcNAc(b1-3)Man = target: GlcNAc(b1-3)Man
# Summary of the method: as §1
# [22] = target: GlcNAc(b1-3)[GlcNAc(b1-4)][GlcNAc(b1-6)]GlcNAc
# Summary of the method: as §1
# [23] = target: GlcNAc(b1-3)[GlcNAc(b1-6)]Gal(b1-4)GlcNAc
# Summary of the method: as §1
# [24] = target: GlcNAc(b1-3)[GlcNAc(b1-6)]GalNAc
# Summary of the method: as §1
# [25] = target: GlcNAc(b1-4)Gal(b1-4)GlcNAc
# Summary of the method: as §1
# GlcNAc(b1-4)GlcNAc = target: GlcNAc(b1-4)GlcNAc
# Summary of the method: as §1
# [26] = target: GlcNAc(b1-4)GlcNAc(b1-4)GlcNAc
# Summary of the method: as §1
# [27] = target: GlcNAc(b1-4)GlcNAc(b1-4)GlcNAc(b1-4)GlcNAc(b1-4)GlcNAc
# Summary of the method: as §1
binder,measurement,setting,value
"SBD (Rhizopus oryzae), P07683 (protein) ASIPSSASVQLDSYNYDGSTFSGKIYVKNIAYSKKVTVVYADGSDNWNNNGNIIAASFSGPISGSNYEYWTFSASVKGIKEFYIKYEVSGKTYYDNNNSANYQVS",glycan array binding signal (z-score),Gal6S(b1-4)GlcNAc6S,-0.249
same,glycan array binding signal (z-score),GalNAc(a1-3)Gal,0.088
same,glycan array binding signal (z-score),GalNAc(a1-3)GalNAc,0.058
same,glycan array binding signal (z-score),[1],-0.49
same,glycan array binding signal (z-score),GalNAc(b1-3)Gal,-0.325
same,glycan array binding signal (z-score),[2],-0.155
same,glycan array binding signal (z-score),[3],-0.276
same,glycan array binding signal (z-score),[4],-1.07
same,glycan array binding signal (z-score),GalNAc(b1-3)GalNAc,-0.363
same,glycan array binding signal (z-score),GalNAc(b1-4)GlcNAc,-0.299
same,glycan array binding signal (z-score),[5],0.888
same,glycan array binding signal (z-score),Glc(a1-4)Glc,0.137
same,glycan array binding signal (z-score),Glc(a1-6)Glc(a1-6)Glc,-0.213
same,glycan array binding signal (z-score),Glc(b1-4)Glc,-0.436
same,glycan array binding signal (z-score),Glc(b1-6)Glc,-0.069
same,glycan array binding signal (z-score),GlcA(b1-3)Gal,-0.294
same,glycan array binding signal (z-score),GlcA(b1-3)GlcNAc,1.04
same,glycan array binding signal (z-score),GlcA(b1-6)Gal,0.255
same,glycan array binding signal (z-score),[6],0.093
same,glycan array binding signal (z-score),[7],0.397
same,glycan array binding signal (z-score),[8],0.474
same,glycan array binding signal (z-score),[9],-0.268
same,glycan array binding signal (z-score),[10],0.405
same,glycan array binding signal (z-score),[11],0.374
same,glycan array binding signal (z-score),[12],0.187
same,glycan array binding signal (z-score),[13],0.873
same,glycan array binding signal (z-score),[14],-0.694
same,glycan array binding signal (z-score),[15],-0.108
same,glycan array binding signal (z-score),[16],-0.07
same,glycan array binding signal (z-score),[17],0.42
same,glycan array binding signal (z-score),[18],-0.157
same,glycan array binding signal (z-score),GlcNAc(b1-3)Gal,-0.07
same,glycan array binding signal (z-score),[19],0.153
same,glycan array binding signal (z-score),GlcNAc(b1-3)Gal(b1-4)Glc,-0.082
same,glycan array binding signal (z-score),[20],-0.5
same,glycan array binding signal (z-score),[21],-0.27
same,glycan array binding signal (z-score),GlcNAc(b1-3)GalNAc,-0.262
same,glycan array binding signal (z-score),GlcNAc(b1-3)Man,0.278
same,glycan array binding signal (z-score),[22],-0.005
same,glycan array binding signal (z-score),[23],-0.133
same,glycan array binding signal (z-score),[24],-0.507
same,glycan array binding signal (z-score),[25],0.463
same,glycan array binding signal (z-score),GlcNAc(b1-4)GlcNAc,-0.363
same,glycan array binding signal (z-score),[26],-0.537
same,glycan array binding signal (z-score),[27],-0.054

# Quoted at random: 2 entries already listed, in no set order.
binder,measurement,setting,value
"SBD (Rhizopus oryzae), P07683 (protein) ASIPSSASVQLDSYNYDGSTFSGKIYVKNIAYSKKVTVVYADGSDNWNNNGNIIAASFSGPISGSNYEYWTFSASVKGIKEFYIKYEVSGKTYYDNNNSANYQVS",glycan array binding signal (z-score),GlcNAc(b1-3)Man,0.278
same,glycan array binding signal (z-score),[15],-0.108
